Reference: patent publication US10293016B2, “Use of instant asparagus powder in food, medicine and health food” (Q[…] DEVELOPMENT CO., LTD, priority 2013, dated 2019)

Test system: Neurotransmitter in Hippocampus of Rat
Assay: CSM test, level of neurotransmitter in hippocampus
Assay type: in vivo
Conditions: with the dosage of administration
Text: The chronic emotional stress-response model takes as an emotional stress-response resource an uncertain stimulation of drinking by an empty bottle, so as to investigate the influence which the emotional stress of 14 days exerts on the behaviors, and neuroendocrine and immune functions of the rats.
After adaptation for one week, the rats were randomly grouped. Except the normal group, the model groups were fed in individual cages and subjected to the uncertain stimulation of drinking by an empty bottle to establish the anxiety stress models. The specific method is as follows: the training of timely feeding water lasts for 7 days, that is, water was being given to the animals for 10 minutes every day at 9:00-9:10 and 17:00-17:10, and at other times, the water bottles were taken away, without water given. […] The specific method was: the 10 minutes of the empty bottle stimulation was equally divided into 10 periods of time, the above-mentioned three types of behaviors of each rat were recorded in each period of time, wherein it was marked as “1” if the behavior appears, otherwise it was marked as “0”. […]
The following endocrine levels were detected in the test: (1) plasma cortisol concentration, (2) catecholamine level, (3) 5-hydroxytryptamine level.

CN1C(=O)CN=C(c2ccccc2)c2cc(Cl)ccc21 [DZP, diazepam]
change of concentration of the main neurotransmitter in the hippocampus in the brain (in words): do not have a notable influence
